Protein sequences, listed by entry. Tags and fused reporters are not part of them. Lines headed by an entry give the natural chain unless they say otherwise; changes in a name come on top. Residues count along the entry.
UniProt Q3USQ7: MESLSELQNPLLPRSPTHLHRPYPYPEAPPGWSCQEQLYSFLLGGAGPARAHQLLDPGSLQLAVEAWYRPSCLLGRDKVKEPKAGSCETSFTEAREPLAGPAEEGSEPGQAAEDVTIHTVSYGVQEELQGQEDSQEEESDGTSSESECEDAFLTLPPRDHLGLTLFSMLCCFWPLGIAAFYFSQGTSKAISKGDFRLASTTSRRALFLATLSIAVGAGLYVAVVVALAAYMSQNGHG
UniProt Q8C581: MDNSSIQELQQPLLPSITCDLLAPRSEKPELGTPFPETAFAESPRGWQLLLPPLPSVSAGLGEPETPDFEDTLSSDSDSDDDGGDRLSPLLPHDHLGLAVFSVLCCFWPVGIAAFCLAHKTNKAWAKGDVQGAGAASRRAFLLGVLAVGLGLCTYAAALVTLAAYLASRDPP
UniProt P19491, residues 22-883: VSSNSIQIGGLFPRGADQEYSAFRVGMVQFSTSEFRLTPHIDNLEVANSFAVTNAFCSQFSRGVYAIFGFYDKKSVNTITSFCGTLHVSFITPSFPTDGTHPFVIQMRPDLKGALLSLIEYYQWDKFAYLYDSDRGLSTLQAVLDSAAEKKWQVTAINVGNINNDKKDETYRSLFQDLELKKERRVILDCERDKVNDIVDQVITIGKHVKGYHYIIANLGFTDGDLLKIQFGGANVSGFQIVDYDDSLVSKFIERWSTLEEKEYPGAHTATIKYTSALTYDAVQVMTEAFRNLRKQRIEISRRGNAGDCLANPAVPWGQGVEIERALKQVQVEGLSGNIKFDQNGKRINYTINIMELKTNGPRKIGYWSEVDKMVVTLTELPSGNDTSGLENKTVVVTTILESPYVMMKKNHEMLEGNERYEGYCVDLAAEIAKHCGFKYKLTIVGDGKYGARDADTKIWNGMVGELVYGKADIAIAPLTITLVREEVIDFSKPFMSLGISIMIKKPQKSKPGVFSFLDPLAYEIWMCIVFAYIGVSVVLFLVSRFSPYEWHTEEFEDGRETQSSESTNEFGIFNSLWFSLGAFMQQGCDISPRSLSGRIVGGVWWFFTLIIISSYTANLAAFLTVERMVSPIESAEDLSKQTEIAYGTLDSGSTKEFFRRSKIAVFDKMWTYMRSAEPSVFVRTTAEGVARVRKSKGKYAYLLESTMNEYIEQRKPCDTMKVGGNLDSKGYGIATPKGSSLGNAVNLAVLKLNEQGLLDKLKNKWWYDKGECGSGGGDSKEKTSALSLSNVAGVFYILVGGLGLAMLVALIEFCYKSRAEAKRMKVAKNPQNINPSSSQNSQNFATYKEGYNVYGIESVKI
UniProt P19492, residues 23-888: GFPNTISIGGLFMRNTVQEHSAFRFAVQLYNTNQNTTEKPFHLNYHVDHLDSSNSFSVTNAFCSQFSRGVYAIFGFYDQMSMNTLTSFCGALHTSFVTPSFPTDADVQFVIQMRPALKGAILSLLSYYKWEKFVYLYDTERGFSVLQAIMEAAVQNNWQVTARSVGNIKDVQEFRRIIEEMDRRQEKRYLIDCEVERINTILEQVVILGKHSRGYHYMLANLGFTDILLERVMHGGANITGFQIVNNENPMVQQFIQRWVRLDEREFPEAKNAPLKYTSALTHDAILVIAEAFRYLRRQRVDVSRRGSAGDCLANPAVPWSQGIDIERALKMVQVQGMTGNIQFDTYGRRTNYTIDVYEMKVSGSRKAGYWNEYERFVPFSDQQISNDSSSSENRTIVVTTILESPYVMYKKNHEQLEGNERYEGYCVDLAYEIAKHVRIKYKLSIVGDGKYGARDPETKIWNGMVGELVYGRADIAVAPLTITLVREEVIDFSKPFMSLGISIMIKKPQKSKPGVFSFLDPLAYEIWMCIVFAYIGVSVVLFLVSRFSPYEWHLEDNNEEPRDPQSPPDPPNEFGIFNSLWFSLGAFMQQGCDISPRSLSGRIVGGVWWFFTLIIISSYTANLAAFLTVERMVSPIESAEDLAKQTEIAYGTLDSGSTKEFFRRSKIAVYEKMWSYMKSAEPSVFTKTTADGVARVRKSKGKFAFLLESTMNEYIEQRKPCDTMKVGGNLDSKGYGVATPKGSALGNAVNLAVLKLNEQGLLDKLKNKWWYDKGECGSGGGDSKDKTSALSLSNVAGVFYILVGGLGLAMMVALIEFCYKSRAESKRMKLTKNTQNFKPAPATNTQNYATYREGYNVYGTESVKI

According to publication PMC8365426:

Assays:
[1] = biological target: GFP-tagged DspC1 (SynDIG2) (mouse) (UniProt Q3USQ7); assay: co-IP; lysates of HEK293 cells expressing GFP-tagged dispanin family members and AMPAR subunits (Supplementary Figure 1); antibody of the immunoprecipitation not given
[2] = biological target: GFP-tagged DspC3 (SynDIG3) (mouse) (UniProt Q8C581); assay: as above

Substance | binding [1] | binding [2]
Flag-GluA2 (from UniProt P19491 22-883) (receptor) | binds | binds
Flag-GluA3 (from UniProt P19492 23-888) (receptor) | binds | binds

No constants are given. Whether binding was seen depends on the method and setting. In cells and extracts the contact can be indirect. Binding can be weak; no strength is given.
